Assay results from ChEMBL document CHEMBL3763113, “Discovery of spirocyclic proline tryptophan hydroxylase-1 inhibitors” (Bioorg Med Chem Lett, 2016).

Legend:
[1] = Clearance in rat at 25 mg/kg, po and 1 mg/kg, iv; assay type: ADME, organism-based; details: in vivo
[2] = system: Mus musculus; assay: Decrease in 5-HT levels in mouse gut mucosa at 150 mg/kg, po administered as single dose for 16 hrs; details: read-out: INH
[3] = system: Rattus norvegicus; assay: Decrease in 5-HT levels in rat platelet rich plasma at 100 mg/kg, po bid measured after 16 hrs relative to control; assay type: functional; set-up: scale not given: the % may be the effect or the level left
[4] = Volume of distribution at steady state in rat at 1 mg/kg, iv; assay type: ADME, organism-based; details: in vivo, read-out: Vdss
[5] = Oral bioavailability in rat at 25 mg/kg; assay type: ADME, organism-based; details: in vivo
[6] = AUC(0 to last) in rat at 25 mg/kg, po; assay type: ADME, organism-based; set-up: dose 25 mg/kg, time 0 - last, route oral; details: in vivo
[7] = Half life in rat at 1 mg/kg, iv; assay type: ADME, organism-based; details: in vivo
[8] = system: Rattus norvegicus; assay: Decrease in 5-HT levels in rat intestinal mucosa at 100 mg/kg, po bid measured after 16 hrs relative to control; assay type: functional; set-up: scale not given: the % may be the effect or the level left
[9] = Cmax in rat at 25 mg/kg, po; assay type: ADME, organism-based; set-up: dose 25 mg/kg, route oral; details: in vivo

Cc1ccn(-c2cc(Cl)ccc2[C@@H](Oc2cc(N3CCC4(CC3)CN[C@H](C(=O)O)C4)nc(N)n2)C(F)(F)F)n1
clearance [1]: 11.5 mL/min/kg
inhibition in vivo at 150 mg/kg [2]: 28%
Activity [3]: 70%
Vd [4]: 0.56 L/kg
bioavailability [5]: < 1%
AUC(0-t) [6]: 158 ng·h/mL
half-life [7]: 2.6 h
Activity [8]: 57%
Cmax [9]: 29 ng/mL
